The values that follow come from patent publication US20130142802A1.

Protein sequences, listed by entry. Tags and fused reporters are not part of them. Lines headed by an entry give the natural chain unless they say otherwise; changes in a name come on top. Residues count along the entry.
UniProt P21802: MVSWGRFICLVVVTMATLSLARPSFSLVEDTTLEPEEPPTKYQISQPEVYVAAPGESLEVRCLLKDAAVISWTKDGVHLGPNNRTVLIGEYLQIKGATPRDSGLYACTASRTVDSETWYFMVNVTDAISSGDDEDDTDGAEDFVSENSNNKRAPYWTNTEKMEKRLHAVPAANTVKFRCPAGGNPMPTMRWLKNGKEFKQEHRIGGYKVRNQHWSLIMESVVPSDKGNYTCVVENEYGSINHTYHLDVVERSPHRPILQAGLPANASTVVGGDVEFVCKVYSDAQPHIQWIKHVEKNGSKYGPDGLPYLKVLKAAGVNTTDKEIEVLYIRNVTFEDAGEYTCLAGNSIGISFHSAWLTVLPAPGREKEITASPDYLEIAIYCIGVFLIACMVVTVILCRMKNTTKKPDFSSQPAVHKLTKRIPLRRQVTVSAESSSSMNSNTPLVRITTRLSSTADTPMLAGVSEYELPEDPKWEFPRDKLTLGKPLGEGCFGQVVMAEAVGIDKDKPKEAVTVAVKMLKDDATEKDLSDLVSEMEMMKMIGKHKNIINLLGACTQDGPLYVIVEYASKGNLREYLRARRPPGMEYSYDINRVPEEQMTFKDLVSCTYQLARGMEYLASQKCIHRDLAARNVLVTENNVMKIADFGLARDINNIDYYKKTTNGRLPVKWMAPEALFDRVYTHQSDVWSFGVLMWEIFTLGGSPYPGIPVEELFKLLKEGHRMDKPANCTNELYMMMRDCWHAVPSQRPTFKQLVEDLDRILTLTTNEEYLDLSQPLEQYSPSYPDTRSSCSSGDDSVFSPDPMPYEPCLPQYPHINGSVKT
Flag-FGFR2-IIIc expressed on CHO cells: residues 22-821 of P21802
FGFR2IIIc-Fc' (R&D Systems): residues 152-377 of P21802

No constants are given. Whether binding was seen depends on the method and setting. Some binding calls cover weakened binding; strength is not graded here.

For assay [1], the target named is FGFR2IIIc-Fc' (R&D Systems) (UniProt P21802). Briefly: ELISA, coated Fc-fusion, hybridoma-conditioned medium. A general note: ELISA stands for enzyme-linked immunosorbent assay.
The target in assay [2] is Flag-FGFR2-IIIc expressed on CHO cells (human) (UniProt P21802). In words: immunocytochemical staining of CHO cells transiently expressing FGFR2IIIc.
The target in assay [3] is FGFR2 IIIb-Fc (human). In words: phage ELISA, plate coated with FGFR2 IIIb Fc fusion (whole extracellular domain).

B1: Atto-MuMab-02 (antibody, V domains shown)
VH: EVQLQQSGAELARPGASVKLSCKTSGYTFTSYWMQWLKQRPGQGLEWIGAIHPGDGDTRYTQKFKGKATLTADKSSSTAYMQLSSLASEDSAVYYCARSDTGRYYGLDYWGQGTSVTVS
VL: DIQMNQSPATLSVTPGETVSLSCRASQSIYKNLHWYQQKSHRSPRLLIKSTSDSISGIPSRFTGSGSGTDYTLSINSVKPEDEGIYYCLQGYSTPYTFGGGTKLEIKR
Consider B1, for which the binding entry in assay [1] is “binds”.

B2: human scFv clone 6, phage-displayed (scFv)
scFv: QSVLTQPPSVSAAPGQKVTISCSGSSSNIGNNYVSWYQQLPGTAPKLLIYDNNKRPSGIPDRFSDSKSGTSATLGITGLQTGDEADYYCGTWDSSLSAVVFGGGTKLTVLGSGGSTITSYNVYYTKLSSSGTEVQLVQSGAEVKKPGSSVKVSCKASGGTFSSYAISWVRQAPGQGLEWMGRIIPILGIANYAQKFQGRVTITADKSTSTAYMELSSLRSEDTAVYYCARDPLLWSYFDYWGQGTLVTVSS
Regarding B2, the binding entry in assay [2] was “binds”; in assay [3], “no binding”.

B3: human scFv clone 6, soluble (scFv)
scFv: B2 scFv
Regarding B3, the binding result in assay [2] is “binds”.
